Consider 28 molecules from PubChem BioAssay AID278 (DTP/NCI, 2004).

The test relates to nude mice, A549 intrarenal xenograft, tumor weight change. Kind of test: NCI In Vivo Anticancer Drug Screen. Data for tumor model A549 Human Adenocarcinoma of Lung with characteristics of Type II Alveolar Epithelial cells (intrarenal inoculation) in NU/NU BALB/C (nude) mice. The following applies: T/C endpoint: mean tumor weight change, schedule: Q04DX003 (ip), higher T/C = larger tumour; for T/C: evaluated on day 12. In outline: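 Mice bearing transplantable tumors were treated and survival or tumor size recorded. Values are given as treated-group measurement divided by vehicle-control measurement (T/C).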

Setting [1] is: dose: 800.0 mg/kg/injection, vehicle: saline with Tween-80.
Setting [2] is: dose: 400.0 mg/kg/injection, vehicle: Klucel (hydroxypropylcellulose) (HPC).
The mark [3] stands for this setting: dose: 75.0 mg/kg/injection, vehicle: Klucel (hydroxypropylcellulose) (HPC).
[4] abbreviates: dose: 600.0 mg/kg/injection, vehicle: Klucel (hydroxypropylcellulose) (HPC).
Setting [5] is: dose: 150.0 mg/kg/injection, vehicle: Klucel (hydroxypropylcellulose) (HPC).
The mark [6] stands for this setting: dose: 600.0 mg/kg/injection, vehicle: saline with Tween-80.
[7] abbreviates: dose: 1200.0 mg/kg/injection, vehicle: saline with Tween-80.

The list shows only some results of the screen, not a fair sample: it gathers tests that were run many times, whatever their T/C, doses with no T/C, and many T/C values between a quarter and a half above the control. Further doses and runs are listed elsewhere. T/C gives the treated animals as a percentage of the vehicle group. Schedules are NCI's codes, read here as Q, the interval in days (D) or hours (H), X, the number of doses. Some T/C values are followed by the survivors on the day toxicity was checked, most often the fifth; where none is given, no animal had died by that day. Some entries were tested several times; their values stand side by side, smallest first. Some entries give survivors of the animals treated and no T/C: the source files T/C as zero there, which appears to mark a toxic dose or a test without result, not a measured value. Survivors were counted at the toxicity check, usually on the fifth day, unless a day is given; later deaths do not show.

Take `COc1ccc2oc3c(ccc[n+]3C)c(=O)c2c1`: under setting [1], the survivor count is on record as 3 of 6 on day 12.

Consider `Cc1ccc(C(=Nc2ccccc2)N=P(c2ccccc2)(c2ccccc2)c2ccccc2)cc1`, for which the T/C (dose: 50.0 mg/kg/injection, vehicle: saline with Tween-80) is 126 % of control. The survivor count (dose: 200.0 mg/kg/injection, vehicle: saline with Tween-80) is recorded as 3 of 6 on day 12.

On to `c1nnc(NCNc2nncs2)s1`, for which the survivor count is given as 3 of 6 on day 12 under setting [2]; 1 of 6 on day 12 (dose: 667.0 mg/kg/injection, vehicle: Klucel (hydroxypropylcellulose) (HPC)); 2 of 6 on day 12 (dose: 800.0 mg/kg/injection, vehicle: suspension in saline).

As to `CC1Oc2cc3c(-c4c(O)cc(O)c5c(O)c6c(cc45)OC(C)C(C)C6=O)c(O)cc(O)c3c(O)c2C(=O)C1C` (stereo not given), the T/C (dose: 3.0 mg/kg/injection, vehicle: suspension in saline) was 126 % of control. For the same molecule, where the note is “dose: 12.0 mg/kg/injection, vehicle: suspension in saline”, the survivor count is on record as 1 of 6 on day 12.

On to `C=CCOc1cc2c(cc1C(C)c1ccc(OC)cc1)OCO2` (stereo not given), for which the T/C under setting [3] is 147 % of control. The survivor count under setting [4] was 1 of 6 on day 12 and 3 of 6 on day 12.

Regarding `CCOC(=O)/N=[N+](\[O-])c1ccccc1`, the survivor count (dose: 100.0 mg/kg/injection, vehicle: saline with Tween-80) is 0 of 6 on day 12.

In the case of `Cc1ccc(C(=O)NC2C(=O)NC(C(C)C)C(=O)N3CCCC3C(=O)N(C)CC(=O)N(C)C(C(C)C)C(=O)OC2C)c2c1Oc1c(c(C(=O)NC3C(=O)NC(C(C)C)C(=O)N4CCCC4C(=O)N(C)CC(=O)N(C)C(C(C)C)C(=O)OC3C)c3nc(-c4ccccc4)c(=O)oc3c1C)N2` (stereo not given), the survivor count is, setting by setting: (dose: 2.0 mg/kg/injection, vehicle: water) 1 of 6 on day 12; (dose: 4.0 mg/kg/injection, vehicle: water) 1 of 6 on day 12.

On to `CCCCCC[Se][Se]CCCCCC`, for which the survivor count is 2 of 6 on day 12 under setting [3]; 0 of 6 on day 12 under setting [5]; 0 of 6 on day 12 (dose: 300.0 mg/kg/injection, vehicle: Klucel (hydroxypropylcellulose) (HPC)); 0 of 6 on day 12 under setting [4].

As to `O=C1CN(CO)C(=O)N1CO`, the survivor count is, setting by setting: (dose: 400.0 mg/kg/injection, vehicle: saline) 1 of 5 on day 12; (dose: 800.0 mg/kg/injection, vehicle: saline) 0 of 6 on day 12.

On to `Cc1c(O)/c(=C\O)c2nc3c(=O)ccc(C(=O)NCCN(C)C)c3[nH]c2c1=O`, for which the survivor count by setting is: (dose: 333.0 mg/kg/injection, vehicle: water) 1 of 6 on day 12; (dose: 333.33 mg/kg/injection, vehicle: water) 1 of 6 on day 12; (dose: 400.0 mg/kg/injection, vehicle: water) 2 of 6 on day 12.

`O=C1C(=O)c2cccnc2-c2ncccc21`: the survivor count was 3 of 6 on day 12 (dose: 10.0 mg/kg/injection, vehicle: Klucel (hydroxypropylcellulose) (HPC)); 0 of 6 on day 12 (dose: 20.0 mg/kg/injection, vehicle: Klucel (hydroxypropylcellulose) (HPC)); 0 of 6 on day 12 (dose: 40.0 mg/kg/injection, vehicle: Klucel (hydroxypropylcellulose) (HPC)).

In the case of `CCOC(=O)/C=C/C(=O)N1CCN(C(=O)/C=C/C(=O)OCC)C(C)C1` (stereo not given), for the setting “dose: 1200.0 mg/kg/injection, vehicle: Klucel (hydroxypropylcellulose) (HPC)”, the survivor count was 0 of 6 on day 12.

As for `CCCCCCCCCCCCCCCCCCOCC(CO)OC` (stereo not given), the survivor count is, setting by setting: under setting [6], 3 of 6 on day 12; under setting [7], 1 of 6 on day 12 and 3 of 5 on day 12.

For the molecule `CC1=C[P+](c2ccccc2)(c2ccccc2)C=C(c2ccccc2)O1`, the T/C (dose: 4.0 mg/kg/injection, vehicle: suspension in saline) is 128 % of control [5 of 6 alive on day 12].

Take `N#Cc1c(N)[nH]c2ccc(Sc3ccccc3)cc12`: the T/C (dose: 120.0 mg/kg/injection, vehicle: saline) was 133 % of control.

Turning to `Cc1cc(NC(=S)SCc2ccc3c(c2)OCO3)ccc1Cl`, under setting [5], the T/C was 125 % of control. In addition, for the setting “dose: 900.0 mg/kg/injection, vehicle: Klucel (hydroxypropylcellulose) (HPC)”, the survivor count is on record as 0 of 6 on day 12.

As for `CNC(=O)N(C)N=NCCCl`, the survivor count was 3 of 6 on day 12 (dose: 400.0 mg/kg/injection, vehicle: saline with Tween-80) and 0 of 6 on day 12 under setting [1].

Regarding `NC(=O)c1[nH]cnc1O`, the survivor count reads like this: (dose: 300.0 mg/kg/injection, vehicle: saline with Tween-80) 2 of 6 on day 12; under setting [6], 0 of 6 on day 12; under setting [7], 0 of 6 on day 12.

As for `CN=C(N)N/N=C(\C)c1ccc2sc3ccc(/C(C)=N/NC(N)=NC)cc3c2c1`, the survivor count (dose: 450.0 mg/kg/injection, vehicle: saline with Tween-80) is 2 of 6 on day 12.

Turning to `COc1cc(C2=NCCc3cc4c(cc32)OCO4)cc(OC)c1OC`, the survivor count (dose: 300.0 mg/kg/injection, vehicle: saline + alcohol) is reported as 0 of 6 on day 12.

On to `O=NNc1cccnc1`, for which the survivor count (dose: 100.0 mg/kg/injection, vehicle: water) is 3 of 5 on day 12.

In the case of `Cc1c2ccccc2c(C)c2c1cc(C(=O)O)c1ccccc12`, the T/C (dose: 75.0 mg/kg/injection, vehicle: saline with Tween-80) is 132 % of control.

Turning to `Cc1c(N)nc([C@H](CC(N)=O)NC[C@H](N)C(N)=O)nc1C(=O)N[C@H](C(=O)N[C@H](C)[C@@H](O)[C@H](C)C(=O)N[C@H](C(=O)NCCc1nc(-c2nc(C(=O)NCCC[S+](C)C)cs2)cs1)[C@@H](C)O)C(OC1OC(CO)C(O)C(O)C1OC1OC(CO)C(O)C(OC(N)=O)C1O)c1cnc[nH]1` (stereo not given in full), the T/C is 47, 48, 58, 64, 65, 103, 140 % of control (dose: 16.0 mg/kg/injection, vehicle: saline); 18, 24, 32, 35, 57, 59, 66 % of control [5 of 6 alive on day 12] (dose: 24.0 mg/kg/injection, vehicle: saline); 3, 16, 30, 44 [3 of 4 alive on day 12], 45, 61, 102 % of control (dose: 36.0 mg/kg/injection, vehicle: saline).

As to `Oc1cccc2ccccc12`, the T/C (dose: 150.0 mg/kg/injection, vehicle: water) was 127 % of control. For the same molecule, the survivor count (dose: 300.0 mg/kg/injection, vehicle: water) is 1 of 6 on day 12.

Take `c1ccc2[nH]c(CN(CCN(Cc3nc4ccccc4[nH]3)Cc3nc4ccccc4[nH]3)Cc3nc4ccccc4[nH]3)nc2c1`: the survivor count (dose: 50.0 mg/kg/injection, vehicle: DMSO) is 1 of 6 on day 12.

Turning to `CN(C)c1ccc2c(Nc3ccc(NS(C)(=O)=O)cc3)c3ccc(N(C)C)cc3nc2c1`, the survivor count under setting [2] is given as 3 of 6 on day 12.

In the case of `Cc1cc(Br)c2nsnc2c1[N+](=O)[O-]`, under setting [7], the survivor count is 3 of 6 on day 12.

As to `CCOc1ccc(C(C)c2cc3c(cc2OC)OCO3)cc1` (stereo not given), under “dose: 800.0 mg/kg/injection, vehicle: distilled water + Tween-80”, the survivor count is on record as 1 of 6 on day 12.
